Data: paper PMC7311325
Results are given in words; binding and its absence hold for the method and conditions named.

By UniProt entry, the sequences of proteins in these tests, tags left out. Residues count along the entry.
UniProt P02768, residues 25-609: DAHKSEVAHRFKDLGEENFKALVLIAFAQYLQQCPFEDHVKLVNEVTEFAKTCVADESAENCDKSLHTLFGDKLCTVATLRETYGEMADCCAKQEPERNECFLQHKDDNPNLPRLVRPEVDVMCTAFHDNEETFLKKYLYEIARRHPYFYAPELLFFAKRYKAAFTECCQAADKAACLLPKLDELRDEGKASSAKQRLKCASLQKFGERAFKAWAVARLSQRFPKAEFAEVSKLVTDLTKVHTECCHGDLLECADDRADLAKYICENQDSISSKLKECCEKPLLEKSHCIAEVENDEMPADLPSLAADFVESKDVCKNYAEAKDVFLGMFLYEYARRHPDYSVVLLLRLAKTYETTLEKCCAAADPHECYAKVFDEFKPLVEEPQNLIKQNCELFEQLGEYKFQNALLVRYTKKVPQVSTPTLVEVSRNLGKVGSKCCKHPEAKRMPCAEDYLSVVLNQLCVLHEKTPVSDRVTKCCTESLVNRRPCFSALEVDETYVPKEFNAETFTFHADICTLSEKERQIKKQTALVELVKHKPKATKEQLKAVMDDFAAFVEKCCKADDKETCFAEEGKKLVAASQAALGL

B1: Peptide 5 (hemoglobin-derived peptide …) (peptide)
peptide: FLASVSTVLTSKYR
B2: Peptide 1 (hemoglobin-derived peptide …) (peptide)
peptide: VNVDEVGGEALGRLLVVYPWTQR
B3: Peptide 2 (hemoglobin-derived peptide …) (peptide)
peptide: LLVVYPWTQR
B4: Peptide 3 (hemoglobin-derived peptide …) (peptide)
peptide: MFLSFPTTK

Biological target: serum albumin (UniProt P02768)
Experiment: cross-linking; cross-linking mass spectrometry: protein and peptides in PBS pH 7.0, cross-linker DSSO (final 10 µmol/L), room temperature 1 h with shaking; GeLC, trypsin digestion, LC-MS/MS, cross-links searched with MeroX 2.0; both purified

| Binder | binding |
| --- | --- |
| B1 | no binding |
| B2 | no binding |
| B3 | no binding |
| B4 | no binding |
